Measurements reported in PubChem BioAssay AID504774 (Drosophila RNAi Screening Center, 2011)
The deposit covers about 23,000 reagents; shown is a random part of those with a known target gene and a result. 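Values are quantile-normalised luminescence on an arbitrary scale; higher means more cells surviving MMS.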 Further read-outs or replicates are left out here.

Screen: 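Knock-downs that shift viability of MMS-exposed cells relative to untreated ones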 (primary screen)
Cells: Drosophila Kc167 cells
Knock-down reagent: long dsRNA against Drosophila genes, about 0.25 µg dsRNA per well
Duration: about 6 days: 3 days knock-down, then 3 days with or without MMS
Challenge: methyl methanesulphonate 0.004% (w/v) for 3 days after knock-down
Measurement: 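ATP-dependent luminescence as a measure of live cells in MMS-exposed wells, quantile normalised within each plate, with replicate values also given as a mean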
Reading the numbers: mean viability with MMS and viability with MMS: higher = more surviving cells after MMS

The opening 7 records as a preview:
target gene	amplicon	mean viability with MMS	viability with MMS, replicate 1
bi	DRSC18742	3.64e6	4.24e6
CG10029	DRSC12498	3.42e6	3.79e6
Cpr65Av	DRSC09727	3.59e6	4.09e6
CG34429	DRSC10120	3.55e6	4.03e6
TfAP-2	DRSC11601	3.60e6	4.07e6
mtTFB2	DRSC15519	3.45e6	3.89e6
His4r	DRSC16703	3.12e6	3.61e6

The listing, repeating the preview:
target gene	amplicon	mean viability with MMS	viability with MMS, replicate 1
bi	DRSC18742	3.64e6	4.24e6
CG10029	DRSC12498	3.42e6	3.79e6
Cpr65Av	DRSC09727	3.59e6	4.09e6
CG34429	DRSC10120	3.55e6	4.03e6
TfAP-2	DRSC11601	3.60e6	4.07e6
mtTFB2	DRSC15519	3.45e6	3.89e6
His4r	DRSC16703	3.12e6	3.61e6
CG4570	DRSC15602	3.30e6	3.79e6
CG14957	DRSC08416	3.51e6	3.92e6
CG4297	DRSC00651	3.47e6	3.85e6
Yif1	DRSC15817	3.57e6	4.10e6
l(2)10685	DRSC00665	3.69e6	4.10e6
SpdS	DRSC16408	3.72e6	4.15e6
CG17005	DRSC02556	3.52e6	4.01e6
CG32547	DRSC19263	3.52e6	3.96e6
CG32547	DRSC19265	3.42e6	3.90e6
CG32547	DRSC19474	3.48e6	3.98e6
CG32547	DRSC19626	3.38e6	3.78e6
CG13502	DRSC04147	3.51e6	4.03e6
aust	DRSC02558	3.59e6	3.96e6
Sgp	DRSC02195	3.49e6	4.26e6
Map60	DRSC07464	3.89e6	4.29e6
CG8160	DRSC07086	3.71e6	3.97e6
CG8160	DRSC21434	3.66e6	4.11e6
SuUR	DRSC11292	3.72e6	4.03e6
CG33773	DRSC14032	3.51e6	3.92e6
pont	DRSC17029	2.86e6	3.66e6
Mkp3	DRSC10084	3.51e6	3.98e6
Mkp3	DRSC10085	3.52e6	3.98e6
Dbp45A	DRSC07395	3.51e6	3.95e6
ohgt	DRSC15521	3.36e6	3.84e6
Sdr	DRSC15517	3.59e6	4.16e6
CG11360	DRSC17124	3.69e6	4.18e6
CG11360	DRSC17134	3.69e6	4.21e6
CkIIalpha-i3	DRSC08651	3.16e6	3.70e6
Ir76b	DRSC10831	3.64e6	4.15e6
CG33771	DRSC11718	1.88e6	4.01e6
CG9775	DRSC12330	3.48e6	3.91e6
CG9775	DRSC22667	3.42e6	3.83e6
Nt5b	DRSC19976	3.81e6	4.44e6
Nt5b	DRSC19977	3.53e6	3.92e6
Nt5b	DRSC19978	3.49e6	3.94e6
Nt5b	DRSC22588	3.74e6	4.27e6
CG31013	DRSC16542	3.48e6	3.88e6
Smyd4-1	DRSC06785	3.63e6	4.13e6
CG4577	DRSC00658	3.72e6	4.19e6
Aasdh	DRSC03467	3.37e6	3.67e6
Pak	DRSC12602	3.47e6	3.94e6
Pak	DRSC23302	3.59e6	4.05e6
bard	DRSC14796	3.56e6	4.08e6
CG2767	DRSC15451	3.47e6	3.82e6
CG32631	DRSC19768	3.48e6	4.10e6
CG40045	DRSC21232	3.58e6	4.00e6
Pmvk	DRSC02032	3.51e6	3.94e6
CG30020	DRSC06252	1.80e6	3.96e6
CG30020	DRSC06730	3.36e6	3.73e6
CG42500	DRSC14822	3.47e6	3.85e6
CG31343	DRSC15887	3.50e6	3.95e6
ND-15	DRSC00311	3.39e6	3.80e6
glec	DRSC16958	3.52e6	3.99e6
Uxs	DRSC10941	3.50e6	3.96e6
Syx8	DRSC10402	3.62e6	3.67e6
Syx8	DRSC22498	3.12e6	3.75e6
CG11601	DRSC00318	3.47e6	3.89e6
5-HT7	DRSC12635	3.51e6	3.98e6
ana3	DRSC06289	3.75e6	4.11e6
Tsp68C	DRSC09295	3.57e6	4.29e6
CG6345	DRSC16024	3.78e6	4.17e6
